According to the supplement of paper PMC12067093, “Discovery and optimisation of a covalent ligand for TRIM25 and its application to targeted protein ubiquitination” (Chemical Science, 2025):
The list shows a part of the results.

Sequences of proteins named here, by UniProt entry; tags and fusion partners are left off. A change or cut given only in a name is not applied to a line headed by its entry.
UniProt O94986: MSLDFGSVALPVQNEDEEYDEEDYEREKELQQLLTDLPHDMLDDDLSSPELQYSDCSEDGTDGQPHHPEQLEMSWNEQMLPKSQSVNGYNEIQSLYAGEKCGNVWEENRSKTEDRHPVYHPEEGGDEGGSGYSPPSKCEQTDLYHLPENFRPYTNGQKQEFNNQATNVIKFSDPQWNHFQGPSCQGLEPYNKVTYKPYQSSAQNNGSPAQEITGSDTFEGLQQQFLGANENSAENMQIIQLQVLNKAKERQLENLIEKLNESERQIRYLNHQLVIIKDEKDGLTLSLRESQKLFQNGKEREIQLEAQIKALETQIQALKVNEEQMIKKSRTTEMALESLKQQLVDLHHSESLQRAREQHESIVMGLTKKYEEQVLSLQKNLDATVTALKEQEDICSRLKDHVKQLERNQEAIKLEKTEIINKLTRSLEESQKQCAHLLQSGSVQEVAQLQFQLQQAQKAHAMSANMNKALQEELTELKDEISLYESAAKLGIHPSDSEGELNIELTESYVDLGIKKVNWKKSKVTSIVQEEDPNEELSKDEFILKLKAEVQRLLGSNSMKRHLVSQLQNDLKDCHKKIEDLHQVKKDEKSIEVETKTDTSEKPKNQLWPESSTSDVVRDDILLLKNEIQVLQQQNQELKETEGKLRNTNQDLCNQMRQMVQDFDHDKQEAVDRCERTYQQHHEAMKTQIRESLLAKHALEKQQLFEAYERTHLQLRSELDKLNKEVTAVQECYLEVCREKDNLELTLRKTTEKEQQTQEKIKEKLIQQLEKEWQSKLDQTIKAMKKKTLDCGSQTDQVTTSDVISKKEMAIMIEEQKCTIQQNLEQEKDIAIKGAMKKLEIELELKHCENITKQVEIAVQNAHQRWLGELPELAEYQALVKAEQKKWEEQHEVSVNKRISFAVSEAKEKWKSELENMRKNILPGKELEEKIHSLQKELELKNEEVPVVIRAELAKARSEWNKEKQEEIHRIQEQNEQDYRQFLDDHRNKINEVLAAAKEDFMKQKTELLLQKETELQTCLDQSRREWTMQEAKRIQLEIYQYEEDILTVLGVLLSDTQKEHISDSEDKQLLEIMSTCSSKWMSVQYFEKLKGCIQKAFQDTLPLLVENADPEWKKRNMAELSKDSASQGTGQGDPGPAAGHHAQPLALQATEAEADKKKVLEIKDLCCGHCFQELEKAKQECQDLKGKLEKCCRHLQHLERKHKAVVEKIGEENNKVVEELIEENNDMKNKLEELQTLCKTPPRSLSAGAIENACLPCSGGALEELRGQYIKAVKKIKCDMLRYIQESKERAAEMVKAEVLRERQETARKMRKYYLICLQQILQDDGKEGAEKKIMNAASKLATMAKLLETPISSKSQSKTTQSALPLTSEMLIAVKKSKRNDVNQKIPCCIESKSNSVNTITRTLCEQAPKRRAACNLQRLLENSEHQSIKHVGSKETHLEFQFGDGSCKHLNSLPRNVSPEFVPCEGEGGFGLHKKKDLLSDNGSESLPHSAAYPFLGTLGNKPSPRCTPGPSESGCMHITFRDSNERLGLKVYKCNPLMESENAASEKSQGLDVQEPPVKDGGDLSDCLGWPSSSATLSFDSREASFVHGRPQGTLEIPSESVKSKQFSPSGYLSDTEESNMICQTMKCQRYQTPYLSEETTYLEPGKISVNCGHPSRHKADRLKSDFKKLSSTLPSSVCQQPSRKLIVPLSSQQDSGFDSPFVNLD
UniProt P30260, whole entry, looked up: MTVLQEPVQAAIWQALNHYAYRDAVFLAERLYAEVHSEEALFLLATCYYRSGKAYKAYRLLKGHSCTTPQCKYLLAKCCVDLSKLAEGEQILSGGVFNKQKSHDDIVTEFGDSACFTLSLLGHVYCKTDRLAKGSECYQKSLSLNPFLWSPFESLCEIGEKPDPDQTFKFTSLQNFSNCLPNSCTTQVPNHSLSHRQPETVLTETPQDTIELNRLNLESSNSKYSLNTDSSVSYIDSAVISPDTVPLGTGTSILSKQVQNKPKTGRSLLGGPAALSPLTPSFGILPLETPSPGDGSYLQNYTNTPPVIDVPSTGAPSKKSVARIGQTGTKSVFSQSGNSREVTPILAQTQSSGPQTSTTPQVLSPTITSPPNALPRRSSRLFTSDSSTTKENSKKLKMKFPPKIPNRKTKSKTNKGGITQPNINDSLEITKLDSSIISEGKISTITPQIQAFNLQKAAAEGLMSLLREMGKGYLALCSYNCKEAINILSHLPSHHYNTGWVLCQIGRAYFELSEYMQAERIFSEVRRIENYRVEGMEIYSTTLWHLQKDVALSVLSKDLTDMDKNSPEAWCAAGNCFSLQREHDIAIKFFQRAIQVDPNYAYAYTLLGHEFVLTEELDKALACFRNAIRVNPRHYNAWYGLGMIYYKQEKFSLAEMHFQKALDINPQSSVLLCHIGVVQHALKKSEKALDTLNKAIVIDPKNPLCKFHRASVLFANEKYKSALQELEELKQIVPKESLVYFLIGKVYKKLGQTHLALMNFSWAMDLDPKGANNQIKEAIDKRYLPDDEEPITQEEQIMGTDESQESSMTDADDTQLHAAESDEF
UniProt Q96SN8: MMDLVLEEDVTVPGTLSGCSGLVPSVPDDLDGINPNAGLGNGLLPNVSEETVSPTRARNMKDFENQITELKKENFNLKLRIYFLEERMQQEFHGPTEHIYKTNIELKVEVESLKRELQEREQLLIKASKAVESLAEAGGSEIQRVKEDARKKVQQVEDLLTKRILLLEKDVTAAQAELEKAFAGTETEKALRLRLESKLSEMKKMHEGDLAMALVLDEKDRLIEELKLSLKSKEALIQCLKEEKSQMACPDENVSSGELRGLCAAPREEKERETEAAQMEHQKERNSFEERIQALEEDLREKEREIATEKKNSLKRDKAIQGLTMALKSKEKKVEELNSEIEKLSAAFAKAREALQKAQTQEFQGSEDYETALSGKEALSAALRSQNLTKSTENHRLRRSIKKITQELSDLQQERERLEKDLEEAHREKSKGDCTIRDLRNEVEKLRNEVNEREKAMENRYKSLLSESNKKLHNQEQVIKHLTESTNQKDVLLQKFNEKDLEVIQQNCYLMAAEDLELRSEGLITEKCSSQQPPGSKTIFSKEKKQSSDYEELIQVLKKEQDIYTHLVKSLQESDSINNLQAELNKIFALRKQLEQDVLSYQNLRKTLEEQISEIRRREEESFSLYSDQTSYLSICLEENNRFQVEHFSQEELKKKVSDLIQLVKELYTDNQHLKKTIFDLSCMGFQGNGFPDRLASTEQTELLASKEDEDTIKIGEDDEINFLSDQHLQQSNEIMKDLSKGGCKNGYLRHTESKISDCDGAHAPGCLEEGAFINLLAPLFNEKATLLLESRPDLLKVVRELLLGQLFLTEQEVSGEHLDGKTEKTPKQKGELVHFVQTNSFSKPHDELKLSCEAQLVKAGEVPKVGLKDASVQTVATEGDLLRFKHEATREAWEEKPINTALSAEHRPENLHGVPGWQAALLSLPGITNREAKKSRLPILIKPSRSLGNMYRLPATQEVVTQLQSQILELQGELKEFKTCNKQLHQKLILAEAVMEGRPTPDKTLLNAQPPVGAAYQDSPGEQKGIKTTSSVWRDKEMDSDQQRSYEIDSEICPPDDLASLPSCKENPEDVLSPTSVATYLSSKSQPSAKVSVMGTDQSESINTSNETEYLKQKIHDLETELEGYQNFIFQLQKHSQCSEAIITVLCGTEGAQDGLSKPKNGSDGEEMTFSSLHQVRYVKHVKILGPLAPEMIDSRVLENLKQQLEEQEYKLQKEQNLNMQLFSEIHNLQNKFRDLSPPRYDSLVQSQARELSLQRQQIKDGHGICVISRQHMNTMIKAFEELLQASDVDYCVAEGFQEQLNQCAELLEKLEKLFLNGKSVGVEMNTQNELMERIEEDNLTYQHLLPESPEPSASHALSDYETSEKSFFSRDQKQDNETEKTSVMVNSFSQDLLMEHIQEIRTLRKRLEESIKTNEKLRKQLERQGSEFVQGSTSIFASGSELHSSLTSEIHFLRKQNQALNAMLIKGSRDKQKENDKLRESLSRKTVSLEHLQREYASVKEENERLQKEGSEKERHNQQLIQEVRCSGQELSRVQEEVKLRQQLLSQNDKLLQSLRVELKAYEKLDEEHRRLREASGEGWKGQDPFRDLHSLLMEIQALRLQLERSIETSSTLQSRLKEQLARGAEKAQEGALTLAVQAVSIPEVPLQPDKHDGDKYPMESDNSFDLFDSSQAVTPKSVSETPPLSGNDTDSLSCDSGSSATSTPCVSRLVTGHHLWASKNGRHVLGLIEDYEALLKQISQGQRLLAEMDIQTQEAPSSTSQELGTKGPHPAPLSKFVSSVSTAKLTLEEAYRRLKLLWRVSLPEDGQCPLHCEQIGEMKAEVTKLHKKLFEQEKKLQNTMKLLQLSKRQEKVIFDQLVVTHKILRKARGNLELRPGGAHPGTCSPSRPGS
UniProt Q00535, whole entry, looked up: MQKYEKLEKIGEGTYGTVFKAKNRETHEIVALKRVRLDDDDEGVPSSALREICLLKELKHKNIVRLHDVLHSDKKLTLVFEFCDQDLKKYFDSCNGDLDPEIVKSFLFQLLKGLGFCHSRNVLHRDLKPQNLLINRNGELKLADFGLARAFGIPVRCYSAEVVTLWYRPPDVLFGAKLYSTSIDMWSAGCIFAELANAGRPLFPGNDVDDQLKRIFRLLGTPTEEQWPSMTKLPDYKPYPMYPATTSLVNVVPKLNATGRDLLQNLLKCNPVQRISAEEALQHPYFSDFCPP
UniProt P32970: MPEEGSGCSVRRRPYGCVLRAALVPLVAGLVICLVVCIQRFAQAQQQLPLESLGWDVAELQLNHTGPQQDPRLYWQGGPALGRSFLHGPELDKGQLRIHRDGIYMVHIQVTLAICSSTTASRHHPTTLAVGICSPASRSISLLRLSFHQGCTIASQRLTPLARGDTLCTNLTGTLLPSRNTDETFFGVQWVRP
UniProt Q14004, whole entry, looked up: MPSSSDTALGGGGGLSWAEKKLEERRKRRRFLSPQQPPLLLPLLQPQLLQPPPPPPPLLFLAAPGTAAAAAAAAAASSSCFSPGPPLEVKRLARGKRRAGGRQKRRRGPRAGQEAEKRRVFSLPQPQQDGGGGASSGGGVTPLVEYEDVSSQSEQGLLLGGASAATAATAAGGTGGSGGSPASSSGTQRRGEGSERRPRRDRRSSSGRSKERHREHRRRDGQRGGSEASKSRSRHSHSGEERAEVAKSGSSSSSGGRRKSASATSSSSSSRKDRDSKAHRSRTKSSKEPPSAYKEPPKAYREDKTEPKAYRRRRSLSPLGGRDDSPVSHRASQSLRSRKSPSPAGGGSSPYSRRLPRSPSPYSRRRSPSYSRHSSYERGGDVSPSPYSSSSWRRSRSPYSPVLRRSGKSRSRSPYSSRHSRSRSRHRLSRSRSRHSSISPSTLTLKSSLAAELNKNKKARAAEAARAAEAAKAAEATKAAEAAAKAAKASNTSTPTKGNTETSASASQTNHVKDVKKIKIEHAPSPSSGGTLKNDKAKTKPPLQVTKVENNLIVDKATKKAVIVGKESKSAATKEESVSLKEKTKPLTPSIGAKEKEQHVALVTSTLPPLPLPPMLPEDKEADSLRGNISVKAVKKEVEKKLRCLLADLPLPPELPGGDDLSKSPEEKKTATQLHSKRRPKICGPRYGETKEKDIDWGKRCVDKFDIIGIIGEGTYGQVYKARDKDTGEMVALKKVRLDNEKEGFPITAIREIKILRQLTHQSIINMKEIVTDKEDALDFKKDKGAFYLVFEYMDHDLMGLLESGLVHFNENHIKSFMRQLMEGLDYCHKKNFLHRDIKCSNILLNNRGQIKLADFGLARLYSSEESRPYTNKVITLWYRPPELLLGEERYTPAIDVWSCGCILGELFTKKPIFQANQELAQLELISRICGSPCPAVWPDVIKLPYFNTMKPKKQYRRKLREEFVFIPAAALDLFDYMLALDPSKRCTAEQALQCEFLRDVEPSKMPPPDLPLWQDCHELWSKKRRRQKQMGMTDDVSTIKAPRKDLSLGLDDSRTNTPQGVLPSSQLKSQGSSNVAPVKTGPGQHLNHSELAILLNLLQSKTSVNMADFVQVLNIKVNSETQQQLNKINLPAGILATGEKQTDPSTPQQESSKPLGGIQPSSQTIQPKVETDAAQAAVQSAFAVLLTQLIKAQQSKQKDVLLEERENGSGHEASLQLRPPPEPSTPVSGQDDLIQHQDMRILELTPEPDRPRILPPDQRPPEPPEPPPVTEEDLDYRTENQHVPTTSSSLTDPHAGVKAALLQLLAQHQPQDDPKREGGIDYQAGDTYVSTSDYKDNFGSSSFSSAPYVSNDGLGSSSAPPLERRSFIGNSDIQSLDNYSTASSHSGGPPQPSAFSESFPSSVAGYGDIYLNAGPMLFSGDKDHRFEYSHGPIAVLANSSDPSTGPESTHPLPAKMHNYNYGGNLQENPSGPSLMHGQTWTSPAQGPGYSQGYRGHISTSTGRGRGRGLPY

Compound: Cc1cc(ccc1-c1ccccc1)C(=O)N1CCCN(CC1)C(=O)CCl [compound 10]
Assay: probe-labelled cysteine peptide fold change vs DMSO (competition) (log2 fold change); higher = less target engagement (more negative = stronger competition)
Conditions: THP-1, incubation time: 4 h
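Note: competitive profiling in live THP-1 cells: cysteine peptides tagged with an iodoacetamide desthiobiotin (IA-DTB) probe, intensity after compound treatment relative to DMSO-treated cells.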

Row | Target | probe-labelled cysteine peptide fold change (10 µM) | probe-labelled cysteine peptide fold change (50 µM)
1 | CEP152_O94986_1167_DLCCGHCFQELEK (UniProt O94986) | -0.165 | -0.6
2 | CEP350_Q5VT06_3083_VDHILVQELHEEEAQWVNYDEDELCVK (UniProt Q5VT06) | -0.235 | 0.105
3 | CD300LF_Q8TDQ1_264_EDISYASLTLGAEDQEPTYCNMGHLSSHLPGR (UniProt Q8TDQ1) | 0.00191 | -0.274
4 | CEP192_Q8TEP8_2335_CSPISGLLESHGIQK (UniProt Q8TEP8) | 0.0613 | 0.151
5 | CDC27_P30260_126_SHDDIVTEFGDSACFTLSLLGHVYCK (UniProt P30260) | 0.124 | -0.077
6 | CCT8_P50990_347_LTPPVLEEMGHCDSVYLSEVGDTQVVVFKHEKEDGAISTIVLR (UniProt P50990) | -0.293 | -0.714
7 | CDK5RAP2_Q96SN8_434_SKGDCTIR (UniProt Q96SN8) | 0.216 | 0.11
8 | CDK5_Q00535_94_YFDSCNGDLDPEIVK (UniProt Q00535) | -0.0444 | 0.175
9 | CENPT_Q96BT3_495_YFQHLCDDLEVFAAHAGR (UniProt Q96BT3) | 0.067 | 0.296
10 | CD70_P32970_17_RRPYGCVLR (UniProt P32970) | -1.01 | -0.757
11 | CENPI_Q92674_332_EMSLSDCLNR (UniProt Q92674) | -0.0675 | -0.367
12 | CDK13_Q14004_840_CSNILLNNR (UniProt Q14004) | -0.022 | -0.0201
13 | CDK4_P11802_215_RKPLFCGNSEADQLGK (UniProt P11802) | -0.166 | -0.0919
14 | CENPF_P49454_1188_NQCNFKPQMDLEVK (UniProt P49454) | -0.0482 | -0.261

Quoted from the listing.
For probe-labelled cysteine peptide fold change (50 µM), CEP152_O94986_1167_DLCCGHCFQELEK (UniProt O94986) is entered as -0.6
For probe-labelled cysteine peptide fold change (10 µM), CCT8_P50990_347_LTPPVLEEMGHCDSVYLSEVGDTQVVVFKHEKEDGAISTIVLR (UniProt P50990) is entered as -0.293
